Assay results: US20100280085A1, “CHEMICAL COMPOUNDS” (SYNGENTA CROP PROTECTION, INC., priority 2006, published 2010)
Some of these results come from one statement about several compounds together.

Tests used:
[1] = test system: Heliothis virescens (Tobacco budworm); assay: Heliothis virescens egg/larval test on artificial diet in 24-well microtiter plate; type: in vivo; details: 200 ppm by pipetting on eggs (0-24 h old) on artificial diet; after 4 days; egg mortality, larval mortality, growth regulation
[2] = test system: Tetranychus urticae (Two-spotted spider mite); assay: Tetranychus urticae bean leaf disc spray test; type: in vivo; details: bean leaf discs sprayed at 200 ppm; mixed ages; after 8 days; egg, larval and adult mortality

SMILES	control of Heliothis virescens [1]	control of Tetranychus urticae [2]
O=C(NCCCl)NC1CCc2c(F)cccc21 (stereo not shown) [Compound 31.016]	at least 80%	at least 80%
O=C(NCCCl)NC1CCc2ccccc21 (stereo not shown) [Compound 31.018]	at least 80%	at least 80%
